# Cell number after 72 h of treatment

Data from the primary screen of doi:10.1371/journal.pone.0140310, rounded.

Drug key:
midostaurin (0.4 µM): CO[C@@H]1[C@H](N(C)C(=O)c2ccccc2)C[C@H]2O[C@]1(C)n1c3ccccc3c3c4c(c5c6ccccc6n2c5c31)C(=O)NC4
nilutamide (5 µM): CC1(C)NC(=O)N(c2ccc([N+](=O)[O-])c(C(F)(F)F)c2)C1=O
L-779450 (1 µM): Oc1cc(-c2nc(-c3ccccc3)[nH]c2-c2ccncc2)ccc1Cl
dasatinib (0.02 µM): Cc1nc(Nc2ncc(C(=O)Nc3c(C)cccc3Cl)s2)cc(N2CCN(CCO)CC2)n1
NVP-BEZ235 (0.02 µM): Cn1c(=O)n(-c2ccc(C(C)(C)C#N)cc2)c2c3cc(-c4cnc5ccccc5c4)ccc3ncc21
FK866 (0.05 µM): O=C(/C=C/c1cccnc1)NCCCCC1CCN(C(=O)c2ccccc2)CC1
enzastaurin (4 µM): Cn1cc(C2=C(c3cn(C4CCN(Cc5ccccn5)CC4)c4ccccc34)C(=O)NC2=O)c2ccccc21
pazopanib (2 µM): Cc1ccc(Nc2nccc(N(C)c3ccc4c(C)n(C)nc4c3)n2)cc1S(N)(=O)=O
vismodegib (5 µM): CS(=O)(=O)c1ccc(C(=O)Nc2ccc(Cl)c(-c3ccccn3)c2)c(Cl)c1

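Human melanoma cells were exposed to two drugs together for 72 h in 1,536-well plates and read by automated microscopy after fixing and staining. Values are the number of DAPI-stained nuclei as a percentage of the DMSO control: 100 is no effect, lower means fewer cells. Every drug was used at one fixed concentration, the higher of two screened. The file gives one value for each pair and line, without errors, so small differences may be noise.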 This is part of the screen, not chosen by result.

For L-779450 + dasatinib the values were WM451Lu: 55.4; COLO 792: 61.4.
For nilutamide + enzastaurin the values were WM451Lu: 84.8; COLO 792: 84.6.
For vismodegib + dasatinib the values were WM451Lu: 78.1; COLO 792: 66.5.
For vismodegib + FK866 the values were WM451Lu: 106; COLO 792: 39.9.
For enzastaurin + midostaurin the values were WM451Lu: 59.5; COLO 792: 46.0.
For NVP-BEZ235 + dasatinib the values were WM451Lu: 85.6; COLO 792: 41.7.
For nilutamide + L-779450 the values were WM451Lu: 54.6; COLO 792: 116.
For vismodegib + pazopanib the values were WM451Lu: 101; COLO 792: 123.
For NVP-BEZ235 + vismodegib the values were WM451Lu: 80.5; COLO 792: 54.8.
For pazopanib + dasatinib the values were WM451Lu: 60.5; COLO 792: 55.0.
For NVP-BEZ235 + pazopanib the values were WM451Lu: 77.8; COLO 792: 27.2.
For nilutamide + dasatinib the values were WM451Lu: 87.5; COLO 792: 34.6.
For L-779450 + FK866 the values were WM451Lu: 54.7; COLO 792: 52.0.
For nilutamide + NVP-BEZ235 the values were WM451Lu: 70.5; COLO 792: 38.8.
For L-779450 + vismodegib the values were WM451Lu: 72.3; COLO 792: 112.
For NVP-BEZ235 + enzastaurin the values were WM451Lu: 97.9; COLO 792: 59.3.
For midostaurin + L-779450 the values were WM451Lu: 62.4; COLO 792: 66.5.
For vismodegib + enzastaurin the values were WM451Lu: 71.8; COLO 792: 68.0.
For dasatinib + midostaurin the values were WM451Lu: 67.0; COLO 792: 27.9.
For vismodegib + midostaurin the values were WM451Lu: 91.1; COLO 792: 76.3.
For dasatinib + FK866 the values were WM451Lu: 66.6; COLO 792: 31.4.
For FK866 + nilutamide the values were WM451Lu: 100; COLO 792: 53.5.
For enzastaurin + L-779450 the values were WM451Lu: 72.7; COLO 792: 117.
For midostaurin + nilutamide the values were WM451Lu: 81.3; COLO 792: 68.1.
For L-779450 + NVP-BEZ235 the values were WM451Lu: 37.5; COLO 792: 68.1.
For enzastaurin + FK866 the values were WM451Lu: 84.1; COLO 792: 44.0.
For midostaurin + NVP-BEZ235 the values were WM451Lu: 65.3; COLO 792: 50.1.
For enzastaurin + pazopanib the values were WM451Lu: 73.6; COLO 792: 52.5.
For pazopanib + L-779450 the values were WM451Lu: 54.5; COLO 792: 106.
For pazopanib + midostaurin the values were WM451Lu: 58.6; COLO 792: 64.7.

The last 3 entries again:

| Drugs | WM451Lu | COLO 792 |
|---|---|---|
| enzastaurin + pazopanib | 73.6 | 52.5 |
| pazopanib + L-779450 | 54.5 | 106 |
| pazopanib + midostaurin | 58.6 | 64.7 |